Weaker means in comparison with the reference protein, sequence or condition of that experiment. For part of these data: The exact form of at least one protein or probe is not confirmed.
What was measured:
Assay in all cases: EMSA
[1] = tested on: DmREYA R1381E,Y1417A (fruit fly); details: 587-3594-fold range vs WT over the three orthologs, value only in Fig 4E; 5' m7G cap (Vaccinia capping); EMSA: 20 mM Tris-HCl pH 8, 150 mM NaCl, 10% glycerol, 1 mM DTT, 0.5 ug tRNA, 1 ug BSA, pM RNA (95 C, snap cooled), 0.5-1 h on ice; native 7% PAGE, 0.5X TBE; recombinant protein; protein details: His6-MBP removed by TEV; label: 32P in cap
DrREYA (zebrafish) = DrREYA (zebrafish) (UniProt F1R0U5); details: 587-3594-fold range vs WT over the three orthologs, value only in Fig 4E; 5' m7G cap (Vaccinia capping); EMSA: 20 mM Tris-HCl pH 8, 150 mM NaCl, 10% glycerol, 1 mM DTT, 0.5 ug tRNA, 1 ug BSA, pM RNA (95 C, snap cooled), 0.5-1 h on ice; native 7% PAGE, 0.5X TBE; recombinant protein; label: 32P in cap
[2] = tested on: HsREYA R840E,Y883A (Homo sapiens); details: 587-3594-fold range vs WT over the three orthologs, value only in Fig 4E; 5' m7G cap (Vaccinia capping); EMSA: 20 mM Tris-HCl pH 8, 150 mM NaCl, 10% glycerol, 1 mM DTT, 0.5 ug tRNA, 1 ug BSA, pM RNA (95 C, snap cooled), 0.5-1 h on ice; native 7% PAGE, 0.5X TBE; recombinant protein; protein details: His6-MBP removed by TEV; label: 32P in cap

Chains of the proteins cited; added tags and fusions are not shown. Chains listed by the source or under a name are the forms on record and can include a tag or linker.
DmREYA R1381E,Y1417A (fruit fly), one chain, as listed by the source R1381E Y1417A: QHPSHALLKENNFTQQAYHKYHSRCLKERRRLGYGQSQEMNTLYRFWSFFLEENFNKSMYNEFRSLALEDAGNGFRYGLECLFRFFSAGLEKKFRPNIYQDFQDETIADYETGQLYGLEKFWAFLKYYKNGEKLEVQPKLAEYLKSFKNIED

Measured: binding result

CUUUUGCCAUUGUCAGCCGACGAAGUGCUUUAACCCAAACUA [DmRPL30 42-mer, capped]
binds more weakly: all assays above
